Results are given in words; binding and its absence hold for the method and conditions named. In cells and extracts the contact can be indirect. Some entries that bind do so weakly or less than the wild type.
Target: BiP-FLAG (BiP/GRP78 with a 3xFLAG tag inserted just upstream of the KDEL signal) (mouse) (UniProt P20029)
Assay: co-IP

Sequences of proteins named here, by UniProt entry; tags and fusion partners are left off. Residues count along the entry.
UniProt P20029, residues 20-655: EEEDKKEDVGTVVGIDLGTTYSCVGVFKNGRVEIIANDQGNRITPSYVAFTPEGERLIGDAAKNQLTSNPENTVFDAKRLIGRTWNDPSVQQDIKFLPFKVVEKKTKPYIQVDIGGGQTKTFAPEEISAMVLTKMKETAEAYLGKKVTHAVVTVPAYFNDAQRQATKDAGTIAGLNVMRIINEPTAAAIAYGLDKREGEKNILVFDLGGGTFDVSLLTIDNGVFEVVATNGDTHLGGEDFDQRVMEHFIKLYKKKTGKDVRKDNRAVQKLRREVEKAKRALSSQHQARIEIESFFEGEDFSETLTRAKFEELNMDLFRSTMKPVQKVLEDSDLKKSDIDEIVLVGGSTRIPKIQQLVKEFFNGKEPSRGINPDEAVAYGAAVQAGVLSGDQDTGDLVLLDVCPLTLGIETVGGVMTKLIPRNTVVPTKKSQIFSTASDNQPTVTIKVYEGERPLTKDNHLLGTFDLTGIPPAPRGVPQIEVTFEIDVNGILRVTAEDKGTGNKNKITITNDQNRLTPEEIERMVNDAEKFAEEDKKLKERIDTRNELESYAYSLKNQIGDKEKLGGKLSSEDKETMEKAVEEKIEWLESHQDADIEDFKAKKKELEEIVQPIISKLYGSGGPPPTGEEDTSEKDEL
UniProt P27773, residues 25-505: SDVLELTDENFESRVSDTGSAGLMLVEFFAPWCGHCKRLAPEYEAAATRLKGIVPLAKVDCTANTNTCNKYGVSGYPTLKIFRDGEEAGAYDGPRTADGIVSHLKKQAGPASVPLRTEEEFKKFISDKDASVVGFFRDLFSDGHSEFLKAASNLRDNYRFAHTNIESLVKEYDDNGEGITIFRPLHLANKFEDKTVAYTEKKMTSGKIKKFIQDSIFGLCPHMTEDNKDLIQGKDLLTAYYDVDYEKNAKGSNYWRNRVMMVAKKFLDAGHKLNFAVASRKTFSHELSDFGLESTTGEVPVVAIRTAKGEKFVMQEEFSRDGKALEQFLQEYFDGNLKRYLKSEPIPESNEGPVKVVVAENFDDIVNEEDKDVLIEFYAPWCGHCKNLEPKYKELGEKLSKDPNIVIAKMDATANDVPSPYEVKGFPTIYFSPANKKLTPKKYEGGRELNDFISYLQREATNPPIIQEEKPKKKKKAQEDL
UniProt Q99KV1, residues 23-358: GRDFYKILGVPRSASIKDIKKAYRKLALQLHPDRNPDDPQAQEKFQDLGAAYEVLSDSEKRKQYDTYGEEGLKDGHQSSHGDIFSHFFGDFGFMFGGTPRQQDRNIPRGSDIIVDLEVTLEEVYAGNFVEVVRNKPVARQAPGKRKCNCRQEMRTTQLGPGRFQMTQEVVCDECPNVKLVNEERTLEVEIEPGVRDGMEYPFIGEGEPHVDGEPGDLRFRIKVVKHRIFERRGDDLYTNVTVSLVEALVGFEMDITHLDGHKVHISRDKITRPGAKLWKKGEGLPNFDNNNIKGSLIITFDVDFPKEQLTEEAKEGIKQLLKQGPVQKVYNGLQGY

Row | Substance | binding
1 | PDIA3 (from UniProt P27773 25-505) | no binding
2 | ERdj3 (from UniProt Q99KV1 23-358) | binds

Source: paper doi:10.1101/2020.01.01.892539
